Assay results: PMC11005723, “Development of Complementary Photo‐arginine/lysine to Promote Discovery of Arg/Lys hPTMs Interactomes” (Advanced Science, 2024)
Further values from the same series stand in other lists.

Tested on: HEK293T nuclear lysates
Assay: SILAC‐based pull‐down proteomics H4K5me2/H4K5 (probes 7/5)
Format: binding, human
Details: for F6 log2 (H4K5me2/H4K5): run F6; for E6 log2 (H4K5me2/H4K5): run E6
[1] = enriched protein NCBP1 (Q09161)
[2] = enriched protein NOP14 (P78316)
[3] = enriched protein NR2F2 (P24468)
[4] = enriched protein NUP155 (E9PF10)
[5] = enriched protein PAICS (E9PBS1)
[6] = enriched protein PARP1 (P09874)
[7] = enriched protein PPP1CA (P62136)
[8] = enriched protein PPP1CB (P62140)
[9] = enriched protein PPP2R1A (P30153)
[10] = enriched protein PRPF3 (O43395)
[11] = enriched protein PRPF19 (Q9UMS4)
[12] = enriched protein PSAT1 (Q9Y617)
[13] = enriched protein PSMG1 (O95456)
[14] = enriched protein PTCD3 (Q96EY7)
[15] = enriched protein RPL22 (K7EJT5)
[16] = enriched protein RUVBL2 (Q9Y230)
[17] = enriched protein SAMD1 (Q6SPF0)
[18] = enriched protein SEC13 (A8MXL6)
[19] = enriched protein SENP3 (Q9H4L4)
[20] = enriched protein SEPT7 (E7ES33)
[21] = enriched protein SHMT2 (H0YIZ0)
[22] = enriched protein SKIV2L2 (P42285)
[23] = enriched protein SMAD4 (K7EIU8)
[24] = enriched protein SMARCB1 (Q12824)
[25] = enriched protein SMCHD1 (A6NHR9)
[26] = enriched protein SNRPC (P09234)
[27] = enriched protein SNRPD3 (P62318)
[28] = enriched protein SNRPN (J3QLE5)
[29] = enriched protein SRSF5 (Q13243)
[30] = enriched protein THOC2 (A0A0C4DG98)
[31] = enriched protein THOC3 (Q96J01)
[32] = enriched protein THOC5 (Q13769)
[33] = enriched protein THOC6 (Q86W42)
[34] = enriched protein U2AF1 (Q01081)
[35] = enriched protein UBE2M (P61081)
[36] = enriched protein UQCRC1 (P31930)
[37] = enriched protein VDAC2 (A0A0A0MR02)
[38] = protein A0A0B4J2E5 LOC102724159
[39] = protein A0A1W2PQ90 Uncharacterized protein

Substance: probe 7: H4K5me2 peptide probe with photo‐arginine R(dz) and K(biotin) (SGRGKGGKGLGKGGK; photo-arginine R(dz) at 3; dimethyl-lysine at 5; K(biotin) at 15)
- F6 log2 (H4K5me2/H4K5) (enriched protein MIF (P14174)): 0.3402
- E6 log2 (H4K5me2/H4K5) [1]: 0.4502
- F6 log2 (H4K5me2/H4K5) [1]: 0.2006
- E6 log2 (H4K5me2/H4K5) [2]: 0.5649
- F6 log2 (H4K5me2/H4K5) [2]: 1.527
- E6 log2 (H4K5me2/H4K5) [3]: 0.7904
- F6 log2 (H4K5me2/H4K5) [3]: 0.8722
- E6 log2 (H4K5me2/H4K5) (enriched protein NSD1 (Q96L73)): 0.9421
- F6 log2 (H4K5me2/H4K5) (enriched protein NSD1 (Q96L73)): -0.6852
- E6 log2 (H4K5me2/H4K5) [4]: 0.7525
- F6 log2 (H4K5me2/H4K5) [4]: -1.3641
- E6 log2 (H4K5me2/H4K5) [5]: 0.5659
- F6 log2 (H4K5me2/H4K5) [5]: 0.4981
- E6 log2 (H4K5me2/H4K5) [6]: 0.5123
- F6 log2 (H4K5me2/H4K5) [6]: 0.4365
- E6 log2 (H4K5me2/H4K5) (enriched protein PCNA (P12004)): 0.5188
- F6 log2 (H4K5me2/H4K5) (enriched protein PCNA (P12004)): 0.4082
- E6 log2 (H4K5me2/H4K5) (enriched protein PGK1 (P00558)): 0.7906
- F6 log2 (H4K5me2/H4K5) (enriched protein PGK1 (P00558)): 0.7824
- E6 log2 (H4K5me2/H4K5) (enriched protein PHF6 (Q8IWS0)): 0.5067
- F6 log2 (H4K5me2/H4K5) (enriched protein PHF6 (Q8IWS0)): 0.2654
- E6 log2 (H4K5me2/H4K5) (enriched protein PPIA (P62937)): 0.6611
- F6 log2 (H4K5me2/H4K5) (enriched protein PPIA (P62937)): 0.6884
- E6 log2 (H4K5me2/H4K5) [7]: 0.6972
- F6 log2 (H4K5me2/H4K5) [7]: 0.645
- E6 log2 (H4K5me2/H4K5) [8]: 0.404
- F6 log2 (H4K5me2/H4K5) [8]: -0.01575
- E6 log2 (H4K5me2/H4K5) [9]: 0.5245
- F6 log2 (H4K5me2/H4K5) [9]: 0.2878
- E6 log2 (H4K5me2/H4K5) [10]: 1.254
- F6 log2 (H4K5me2/H4K5) [10]: 0.5022
- E6 log2 (H4K5me2/H4K5) [11]: 0.4929
- F6 log2 (H4K5me2/H4K5) [11]: 0.5079
- E6 log2 (H4K5me2/H4K5) [12]: 1.232
- F6 log2 (H4K5me2/H4K5) [12]: 0.9134
- E6 log2 (H4K5me2/H4K5) [13]: 0.7836
- F6 log2 (H4K5me2/H4K5) [13]: 0.7673
- E6 log2 (H4K5me2/H4K5) [14]: 1.143
- F6 log2 (H4K5me2/H4K5) [14]: 0.4051
- E6 log2 (H4K5me2/H4K5) (enriched protein RAN (P62826)): 0.4096
- F6 log2 (H4K5me2/H4K5) (enriched protein RAN (P62826)): 0.4478
- E6 log2 (H4K5me2/H4K5) (enriched protein RCC1 (P18754)): 0.5999
- F6 log2 (H4K5me2/H4K5) (enriched protein RCC1 (P18754)): 0.6391
- E6 log2 (H4K5me2/H4K5) (enriched protein RFC3 (P40938)): 0.7179
- F6 log2 (H4K5me2/H4K5) (enriched protein RFC3 (P40938)): 1.486
- E6 log2 (H4K5me2/H4K5) (enriched protein RNF2 (Q99496)): 0.4291
- F6 log2 (H4K5me2/H4K5) (enriched protein RNF2 (Q99496)): 0.2686
- E6 log2 (H4K5me2/H4K5) [15]: 0.5817
- F6 log2 (H4K5me2/H4K5) [15]: 0.3313
- E6 log2 (H4K5me2/H4K5) [16]: 0.5474
- F6 log2 (H4K5me2/H4K5) [16]: 0.5126
- E6 log2 (H4K5me2/H4K5) [17]: 0.4814
- F6 log2 (H4K5me2/H4K5) [17]: 0.1855
- E6 log2 (H4K5me2/H4K5) [18]: 1.006
- F6 log2 (H4K5me2/H4K5) [18]: 1.562
- E6 log2 (H4K5me2/H4K5) [19]: 0.52
- F6 log2 (H4K5me2/H4K5) [19]: 0.2653
- E6 log2 (H4K5me2/H4K5) [20]: 0.6428
- F6 log2 (H4K5me2/H4K5) [20]: 0.562
- E6 log2 (H4K5me2/H4K5) [21]: 0.4508
- F6 log2 (H4K5me2/H4K5) [21]: 0.4286
- E6 log2 (H4K5me2/H4K5) [22]: 0.502
- F6 log2 (H4K5me2/H4K5) [22]: 0.1755
- E6 log2 (H4K5me2/H4K5) (enriched protein SKP1 (E5RJR5)): 0.7524
- F6 log2 (H4K5me2/H4K5) (enriched protein SKP1 (E5RJR5)): 0.6351
- E6 log2 (H4K5me2/H4K5) [23]: 0.657
- F6 log2 (H4K5me2/H4K5) [23]: 0.5993
- E6 log2 (H4K5me2/H4K5) [24]: 0.4652
- F6 log2 (H4K5me2/H4K5) [24]: 0.3353
- E6 log2 (H4K5me2/H4K5) [25]: 0.5636
- F6 log2 (H4K5me2/H4K5) [25]: -0.3447
- E6 log2 (H4K5me2/H4K5) (enriched protein SMU1 (Q2TAY7)): 0.5512
- F6 log2 (H4K5me2/H4K5) (enriched protein SMU1 (Q2TAY7)): 0.7298
- E6 log2 (H4K5me2/H4K5) [26]: 0.7348
- F6 log2 (H4K5me2/H4K5) [26]: 0.8143
- E6 log2 (H4K5me2/H4K5) [27]: 0.8387
- F6 log2 (H4K5me2/H4K5) [27]: 0.9268
- E6 log2 (H4K5me2/H4K5) [28]: 0.8612
- F6 log2 (H4K5me2/H4K5) [28]: 0.7692
- E6 log2 (H4K5me2/H4K5) [29]: 0.4132
- F6 log2 (H4K5me2/H4K5) [29]: -0.05398
- E6 log2 (H4K5me2/H4K5) (enriched protein ST13 (H7C3I1)): 0.4848
- F6 log2 (H4K5me2/H4K5) (enriched protein ST13 (H7C3I1)): 0.1307
- E6 log2 (H4K5me2/H4K5) (enriched protein TARS (P26639)): 0.4285
- F6 log2 (H4K5me2/H4K5) (enriched protein TARS (P26639)): 0.5358
- E6 log2 (H4K5me2/H4K5) [30]: 0.5009
- F6 log2 (H4K5me2/H4K5) [30]: 0.2124
- E6 log2 (H4K5me2/H4K5) [31]: 0.4067
- F6 log2 (H4K5me2/H4K5) [31]: 0.03014
- E6 log2 (H4K5me2/H4K5) [32]: 0.4347
- F6 log2 (H4K5me2/H4K5) [32]: 0.1777
- E6 log2 (H4K5me2/H4K5) [33]: 0.4714
- F6 log2 (H4K5me2/H4K5) [33]: 0.5437
- E6 log2 (H4K5me2/H4K5) (enriched protein TKT (P29401)): 0.419
- F6 log2 (H4K5me2/H4K5) (enriched protein TKT (P29401)): 0.3626
- E6 log2 (H4K5me2/H4K5) [34]: 0.4021
- F6 log2 (H4K5me2/H4K5) [34]: 0.4159
- E6 log2 (H4K5me2/H4K5) [35]: 0.7119
- F6 log2 (H4K5me2/H4K5) [35]: 0.504
- E6 log2 (H4K5me2/H4K5) [36]: 0.9405
- F6 log2 (H4K5me2/H4K5) [36]: 0.8645
- E6 log2 (H4K5me2/H4K5) [37]: 0.5488
- F6 log2 (H4K5me2/H4K5) [37]: 0.2845
- E6 log2 (H4K5me2/H4K5) (enriched protein VRK1 (Q99986)): 0.5647
- F6 log2 (H4K5me2/H4K5) (enriched protein VRK1 (Q99986)): 0.572
- E6 log2 (H4K5me2/H4K5) (protein A0A0B4J1Z1 SRSF7): 0.1976
- F6 log2 (H4K5me2/H4K5) (protein A0A0B4J1Z1 SRSF7): -0.0234
- E6 log2 (H4K5me2/H4K5) [38]: 0.3043
- F6 log2 (H4K5me2/H4K5) [38]: 0.2673
- E6 log2 (H4K5me2/H4K5) [39]: 0.3481
- F6 log2 (H4K5me2/H4K5) [39]: 0.4787
